Data from paper PMC7372886.
Results are given in words; binding and its absence hold for the method and conditions named. Binding seen in cells or lysates may run through a third protein. Some entries that bind do so weakly or less than the wild type.

Sequences of proteins named here, by UniProt entry; tags and fusion partners are left off.
UniProt P49327: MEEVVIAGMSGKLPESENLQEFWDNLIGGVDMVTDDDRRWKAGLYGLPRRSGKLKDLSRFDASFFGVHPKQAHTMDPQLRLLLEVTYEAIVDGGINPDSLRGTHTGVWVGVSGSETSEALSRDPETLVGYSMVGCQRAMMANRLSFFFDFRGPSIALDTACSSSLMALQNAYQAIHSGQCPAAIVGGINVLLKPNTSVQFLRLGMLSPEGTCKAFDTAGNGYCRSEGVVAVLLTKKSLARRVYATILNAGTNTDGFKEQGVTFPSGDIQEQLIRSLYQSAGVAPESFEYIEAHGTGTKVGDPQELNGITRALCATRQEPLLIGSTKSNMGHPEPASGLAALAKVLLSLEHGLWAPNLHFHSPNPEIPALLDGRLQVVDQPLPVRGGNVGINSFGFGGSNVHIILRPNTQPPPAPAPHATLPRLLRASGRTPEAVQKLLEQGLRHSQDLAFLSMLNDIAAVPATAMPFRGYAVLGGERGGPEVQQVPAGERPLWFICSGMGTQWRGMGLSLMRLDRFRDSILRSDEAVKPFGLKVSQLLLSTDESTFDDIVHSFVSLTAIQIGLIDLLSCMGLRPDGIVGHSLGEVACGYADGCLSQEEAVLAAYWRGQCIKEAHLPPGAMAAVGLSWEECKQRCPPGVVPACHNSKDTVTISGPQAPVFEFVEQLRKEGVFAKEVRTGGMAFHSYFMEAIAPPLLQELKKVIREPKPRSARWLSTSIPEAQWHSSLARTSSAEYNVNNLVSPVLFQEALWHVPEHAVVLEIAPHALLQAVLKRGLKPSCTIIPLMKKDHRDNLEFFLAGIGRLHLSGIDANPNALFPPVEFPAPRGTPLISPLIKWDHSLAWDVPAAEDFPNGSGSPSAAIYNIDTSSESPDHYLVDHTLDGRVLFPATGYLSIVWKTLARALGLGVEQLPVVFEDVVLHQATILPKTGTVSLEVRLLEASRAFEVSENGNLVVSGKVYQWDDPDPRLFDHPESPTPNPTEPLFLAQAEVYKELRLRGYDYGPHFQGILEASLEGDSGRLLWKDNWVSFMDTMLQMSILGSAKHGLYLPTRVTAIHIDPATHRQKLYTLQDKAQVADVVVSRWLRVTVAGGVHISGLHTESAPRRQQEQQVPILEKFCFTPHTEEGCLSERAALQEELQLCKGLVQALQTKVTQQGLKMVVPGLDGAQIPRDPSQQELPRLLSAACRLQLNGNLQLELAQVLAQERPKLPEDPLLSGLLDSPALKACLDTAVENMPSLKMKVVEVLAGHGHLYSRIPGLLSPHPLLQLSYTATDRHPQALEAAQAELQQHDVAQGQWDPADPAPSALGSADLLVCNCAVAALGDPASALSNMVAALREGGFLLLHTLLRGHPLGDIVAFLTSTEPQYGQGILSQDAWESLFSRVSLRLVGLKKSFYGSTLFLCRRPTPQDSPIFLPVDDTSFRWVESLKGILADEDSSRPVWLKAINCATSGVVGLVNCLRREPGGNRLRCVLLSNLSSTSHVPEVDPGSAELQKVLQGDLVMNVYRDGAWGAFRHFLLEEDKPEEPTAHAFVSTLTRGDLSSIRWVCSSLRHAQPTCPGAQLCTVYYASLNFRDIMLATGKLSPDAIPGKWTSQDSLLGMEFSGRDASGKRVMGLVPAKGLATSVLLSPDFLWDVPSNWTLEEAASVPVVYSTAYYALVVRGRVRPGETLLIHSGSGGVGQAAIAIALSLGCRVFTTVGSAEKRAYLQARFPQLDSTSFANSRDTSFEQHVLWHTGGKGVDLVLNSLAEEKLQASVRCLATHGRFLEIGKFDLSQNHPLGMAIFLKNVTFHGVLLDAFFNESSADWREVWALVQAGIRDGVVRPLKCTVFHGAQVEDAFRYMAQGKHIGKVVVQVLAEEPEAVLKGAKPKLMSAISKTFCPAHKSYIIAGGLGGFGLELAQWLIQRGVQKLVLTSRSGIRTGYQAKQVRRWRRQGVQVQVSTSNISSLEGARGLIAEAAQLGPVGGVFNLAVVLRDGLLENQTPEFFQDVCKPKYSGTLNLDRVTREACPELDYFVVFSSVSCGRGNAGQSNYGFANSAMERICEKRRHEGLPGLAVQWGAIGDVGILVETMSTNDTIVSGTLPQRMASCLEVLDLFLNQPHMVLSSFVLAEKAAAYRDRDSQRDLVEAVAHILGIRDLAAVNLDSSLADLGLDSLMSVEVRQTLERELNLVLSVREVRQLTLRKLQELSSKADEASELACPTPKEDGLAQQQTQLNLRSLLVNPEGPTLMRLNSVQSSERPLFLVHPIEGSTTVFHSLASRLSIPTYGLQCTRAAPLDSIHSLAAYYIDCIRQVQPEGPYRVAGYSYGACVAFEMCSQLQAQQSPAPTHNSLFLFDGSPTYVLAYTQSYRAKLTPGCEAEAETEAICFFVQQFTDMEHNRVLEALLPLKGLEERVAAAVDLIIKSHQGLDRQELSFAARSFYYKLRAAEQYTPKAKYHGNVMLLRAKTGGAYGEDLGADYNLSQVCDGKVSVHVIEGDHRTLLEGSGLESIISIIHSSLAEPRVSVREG
UniProt Q01082: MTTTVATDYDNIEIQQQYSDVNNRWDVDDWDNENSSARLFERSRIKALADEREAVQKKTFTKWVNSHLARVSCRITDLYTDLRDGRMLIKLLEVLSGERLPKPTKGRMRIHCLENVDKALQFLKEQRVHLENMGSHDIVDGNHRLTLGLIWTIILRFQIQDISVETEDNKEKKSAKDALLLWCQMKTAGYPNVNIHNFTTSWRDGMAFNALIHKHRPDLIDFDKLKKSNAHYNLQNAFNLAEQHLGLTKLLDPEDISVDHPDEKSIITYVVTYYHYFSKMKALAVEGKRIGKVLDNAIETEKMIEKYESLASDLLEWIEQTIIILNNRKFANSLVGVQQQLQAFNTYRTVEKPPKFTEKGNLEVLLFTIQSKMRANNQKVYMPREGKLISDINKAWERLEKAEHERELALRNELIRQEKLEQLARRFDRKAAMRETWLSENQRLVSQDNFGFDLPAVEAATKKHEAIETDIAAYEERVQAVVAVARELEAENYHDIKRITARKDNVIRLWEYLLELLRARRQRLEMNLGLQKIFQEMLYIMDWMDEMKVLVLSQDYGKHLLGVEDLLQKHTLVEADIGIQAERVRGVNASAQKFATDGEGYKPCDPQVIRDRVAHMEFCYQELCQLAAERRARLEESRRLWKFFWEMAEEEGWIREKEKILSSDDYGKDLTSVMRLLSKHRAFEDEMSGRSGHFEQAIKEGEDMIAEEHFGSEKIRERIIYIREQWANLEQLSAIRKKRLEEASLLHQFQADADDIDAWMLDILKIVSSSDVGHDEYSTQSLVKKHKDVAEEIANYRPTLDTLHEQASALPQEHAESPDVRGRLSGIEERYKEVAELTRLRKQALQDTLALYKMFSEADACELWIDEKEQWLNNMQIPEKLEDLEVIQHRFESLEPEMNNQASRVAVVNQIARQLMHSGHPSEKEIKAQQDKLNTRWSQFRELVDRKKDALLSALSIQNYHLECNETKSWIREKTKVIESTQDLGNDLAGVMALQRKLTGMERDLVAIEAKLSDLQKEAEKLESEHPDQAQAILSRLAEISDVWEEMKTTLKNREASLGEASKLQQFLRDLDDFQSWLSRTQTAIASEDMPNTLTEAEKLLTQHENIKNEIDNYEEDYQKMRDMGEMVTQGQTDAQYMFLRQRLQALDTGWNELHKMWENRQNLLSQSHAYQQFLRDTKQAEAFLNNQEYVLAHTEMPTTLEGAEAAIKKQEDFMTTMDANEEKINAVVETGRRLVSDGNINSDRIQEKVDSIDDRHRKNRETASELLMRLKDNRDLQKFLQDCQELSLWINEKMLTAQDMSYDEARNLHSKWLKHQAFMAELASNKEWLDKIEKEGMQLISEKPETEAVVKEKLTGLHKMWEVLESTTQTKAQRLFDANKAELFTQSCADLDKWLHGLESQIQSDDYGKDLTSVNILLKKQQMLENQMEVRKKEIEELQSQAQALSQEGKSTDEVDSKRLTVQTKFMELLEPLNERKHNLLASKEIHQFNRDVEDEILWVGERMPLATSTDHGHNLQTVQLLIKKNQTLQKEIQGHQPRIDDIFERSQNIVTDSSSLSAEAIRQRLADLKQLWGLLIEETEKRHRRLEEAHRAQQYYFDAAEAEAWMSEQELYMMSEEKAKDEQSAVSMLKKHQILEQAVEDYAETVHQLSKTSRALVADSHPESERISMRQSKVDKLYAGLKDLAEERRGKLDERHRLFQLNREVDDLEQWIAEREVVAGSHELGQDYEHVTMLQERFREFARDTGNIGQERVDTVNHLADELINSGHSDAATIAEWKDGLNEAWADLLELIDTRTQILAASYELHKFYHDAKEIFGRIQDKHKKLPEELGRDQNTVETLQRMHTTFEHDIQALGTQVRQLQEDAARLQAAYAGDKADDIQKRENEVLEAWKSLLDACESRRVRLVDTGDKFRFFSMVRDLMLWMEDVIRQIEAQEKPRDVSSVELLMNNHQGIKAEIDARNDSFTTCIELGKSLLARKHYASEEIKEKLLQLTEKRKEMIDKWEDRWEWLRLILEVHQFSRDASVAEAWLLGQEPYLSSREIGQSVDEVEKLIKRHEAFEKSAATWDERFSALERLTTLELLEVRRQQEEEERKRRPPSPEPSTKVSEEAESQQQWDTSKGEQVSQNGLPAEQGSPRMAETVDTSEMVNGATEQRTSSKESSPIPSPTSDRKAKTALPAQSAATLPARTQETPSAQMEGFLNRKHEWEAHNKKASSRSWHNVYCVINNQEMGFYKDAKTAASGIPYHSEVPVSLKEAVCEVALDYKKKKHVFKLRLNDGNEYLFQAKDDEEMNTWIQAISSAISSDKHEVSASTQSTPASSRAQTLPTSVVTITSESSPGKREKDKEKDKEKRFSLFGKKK

Target: Fatty acid synthase (human (endogenous in HepG2 and SMMC7721)) (UniProt P49327)
Assay: co-IP; 1 mg whole cell lysate of HepG2 or SMMC7721 cells with 2 µg FASN antibody overnight at 4 °C, Protein A/G agarose beads; western blot; normal rabbit IgG and beads as negative controls

**Q.** For “Spectrin beta chain, non-erythrocytic 1 (from UniProt Q01082 1-2364)”, which binding is on record?
**A.** binds
